# Measured values published in PubChem BioAssay AID504444 (National Center for Advancing Translational Sciences (NCATS), 2011).
# About 7,500 (2.1%) of roughly 360,000 compounds were called active. Inconclusive results, whose numbers are uncertain, are shown with a selection of clear calls. Calls come from the whole dose curve; as a rule, active = well fitted inhibition curve with a large enough effect; inconclusive = small, poorly fitted or top-dose-only effect, or effect the other way; inactive = flat fitted curve, though single readings scatter. A potency beside an inconclusive call is a rough fit, not a confirmed value.
# Experiment: Nrf2 qHTS screen for inhibitors; note: nearly all actives have a fitted effect of over 60% in size
# Conditions: A549 ARE-Fluc reporter, luciferase luminescence, 18-24 h; series mostly up to 46 µM
# In short: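 A549 ARE_Fluc cells (5000/well, 5% FBS OPTI-MEM) pre-incubated 2 h, then treated with compounds 18-24 h at 37C/5% CO2 in concentration-response. CellTiter-Fluor viability read first; BugLite luciferase luminescence after 15 min at room temperature gives Nrf2 activity.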
# Potency is the fitted concentration of half-maximal effect.
row,SMILES,Potency
1,Cn1c(SCC(=O)NC2CCCC2)nc2cccnc21,"inconclusive: 29.1 µM [falling, single point]"
2,Cc1ccc2c(c1)nnn2C1CCN(S(=O)(=O)c2ccc(C(=O)N(C)C3CCCCC3)cc2)CC1,"inconclusive: 16.4 µM [falling, partial curve, poor fit]"
3,COc1ccc(-c2cc(C)no2)cc1S(=O)(=O)NCc1ccc(OC(C)C)cc1,"inconclusive: 29.1 µM [falling, single point]"
4,COc1cc(NC(=O)c2cc(-c3ccc4c(c3)OCO4)on2)cc(OC)c1OC,"inconclusive: 32.6 µM [falling, partial curve, poor fit]"
5,COc1ccc(S(=O)(=O)c2cn(C)c3cc(N4CCCCC4)c(F)cc3c2=O)cc1,"inconclusive: 18.4 µM [falling, single point]"
6,COc1ccc(NS(=O)(=O)c2ccc(NS(=O)(=O)c3ccc(C)cc3)cc2)nn1,"inconclusive: 29.1 µM [activator, single point]"
7,COC(=O)c1sccc1NC(=O)CNC(=O)c1ccccc1,inactive
8,COCCOC(=O)c1c(NC(=O)CN2CCOCC2)sc(C(N)=O)c1C,inactive
9,N#Cc1c(NC(=O)CSc2nc(N)cc(=O)[nH]2)sc2c1CCCC2,active: 14.6 µM
10,Cc1c(-c2nsc(NC(=O)c3ccc(Cl)cc3)n2)nnn1-c1ccc(C(C)C)cc1,"inconclusive: 0.82 µM [falling, full curve, poor fit]"
11,O=C(c1cc(-c2ccc(Cl)cc2Cl)on1)N1CCCCCC1,"inconclusive: 9.2 µM [activator, partial curve]"
12,COc1cccc(/C=N/n2c(=S)n(C)c3ccccc32)c1OC,"inconclusive: 5.17 µM [falling, single point]"
13,CCC(=O)N1CCN(c2ccc(NC(=O)c3ccc4ccccc4c3)cc2)CC1,"inconclusive: 6.51 µM [falling, single point]"
14,Cc1[nH]n(-c2ccccc2)c(=O)c1C1(C(F)(F)F)C(=O)N(c2ccc(F)cc2)C2=C1C(=O)CC(C)(C)C2 (stereo not drawn),inactive
15,O=C(OCC#CCSc1nnc(-c2cccc3ccccc23)o1)c1ccc(F)cc1F,inactive
16,COC(=O)C1C(=O)C(C(=O)/C=C/c2ccccc2)C(=O)CC1(C)C (stereo not drawn),"inconclusive: 20.6 µM [falling, single point]"
17,CC1CCCN(C(=O)CN2CCC(c3nc4ccc(Cl)cc4[nH]3)CC2)C1 (stereo not drawn),"inconclusive: 32.6 µM [falling, single point]"
18,C/C(=N\NC(=O)c1cc2ccccc2cc1O)c1cc2ccccc2o1,"inconclusive: 29.1 µM [falling, single point]"
19,Clc1ccc(-c2nnc(-c3ccccc3)o2)cn1,"inconclusive: 13 µM [activator, partial curve]"
20,COc1ccc(N(C(=O)Cn2cnc3ccccc32)C(C(=O)NC2CCCCC2)c2ccccc2)cc1 (stereo not drawn),"inconclusive: 29.1 µM [falling, single point]"
21,Cn1c(=O)c2[nH]c(COc3ccccc3)nc2n(C)c1=O,inactive
22,O=C(CSc1ccc2nnc(CCNC(=O)c3ccccc3)n2n1)Nc1ccccc1,"inconclusive: 3.66 µM [falling, partial curve, poor fit]"

row,SMILES,Potency
1,O=C1C(Cl)=C(N2CCCCCC2)C(=O)N1c1ccc(Cl)cc1,inactive
2,CC1CN(c2ccc([N+](=O)[O-])cc2F)CCN1C(=O)c1ccco1 (stereo not drawn),"inconclusive: 29.1 µM [falling, single point]"
3,N=c1n(CCO)c2ccccc2n1Cc1ccccc1Cl,"inconclusive: 20.6 µM [falling, single point]"
4,COc1ccc(NC(=O)C(=O)NNC(=O)COc2ccc(Cl)cc2)c(OC)c1,"inconclusive: 18.4 µM [falling, partial curve, poor fit]"
5,COc1cccc(Nc2cc(N3CCOCC3)c3nonc3c2[N+](=O)[O-])c1,inactive
6,Cc1ccc(C(=O)NCCCc2ccccc2)s1,"inconclusive: 16.4 µM [activator, partial curve, poor fit]"
7,CNS(=O)(=O)/C=C/c1ccccc1,inactive
8,c1ccc(Oc2ccc(-c3ccnc4nc(N5CCN(c6ccccc6)CC5)nn34)cc2)cc1,"inconclusive: 4.61 µM [falling, partial curve, poor fit]"
9,COC(=O)Nc1sc2c(c1C(=O)NC1CC1)CCCCCC2,inactive
10,O=C(NCCSc1c[nH]c2ccccc12)c1ccc2c(c1)OCO2,"inconclusive: 23.1 µM [falling, single point]"
11,CCOCCCNC(=S)N1C2CCC1CC(NC(=O)NC13CC4CC(CC(C4)C1)C3)C2 (stereo not drawn),inactive
12,Cc1ccc(S(=O)(=O)Nc2ccc(S(=O)(=O)Nc3nccs3)cc2)cc1C,inactive
13,Cc1cc(Br)ccc1NC(=O)c1cc2c(=O)n(C)c3cc(Cl)ccc3c2s1,inactive
14,Cc1nnc(N2CCCC(C(=O)NCc3cccc(F)c3)C2)c2nn(-c3ccccc3)c(C)c12 (stereo not drawn),"inconclusive: 29.1 µM [falling, single point]"
15,COc1ccc2[nH]c3c(c2c1)CCN1C(=O)C(CC(=O)NCc2ccc(OC)c(OC)c2)C[C@H](C(=O)N2CCOCC2)[C@@]31CCC1CCCC1 (stereo partly drawn),"inconclusive: 25.9 µM [falling, single point]"
16,Cc1cccc2nc(-c3cccnc3)c(Nc3ccc(C(C)C)cc3)n12,"inconclusive: 29.1 µM [falling, single point]"
17,COc1cccc(/C=C/C(=O)Nc2cccc(C(C)=O)c2)c1OC,"inconclusive: 4.61 µM [activator, full curve, poor fit]"
18,CCN(Cc1ccccc1)C(=O)c1ccc(CNS(=O)(=O)c2ccc(C)cc2)cc1,"inconclusive: 32.6 µM [falling, single point]"
19,O=C(CCc1ccccc1)NC(NC(=S)Nc1ccc(Cl)cc1)C(Cl)(Cl)Cl (stereo not drawn),active: 14.6 µM
20,Fc1ccccc1-c1nc(-c2ccc(Br)o2)no1,"inconclusive: 0.82 µM [activator, full curve, poor fit]"
21,CCOC(=O)c1ccc(NS(=O)(=O)c2cc(C)ccc2OC)cc1,"inconclusive: 20.6 µM [falling, partial curve]"

# Pulled by compound from the list above (2):
row,SMILES,Potency
13,CCC(=O)N1CCN(c2ccc(NC(=O)c3ccc4ccccc4c3)cc2)CC1,"inconclusive: 6.51 µM [falling, single point]"
7,CNS(=O)(=O)/C=C/c1ccccc1,inactive
